Data from PMC12608320, “Insecticidal Potential of Aniba canelilla (H.B.K.) Mez Essential Oil Against Aedes aegypti: Larvicidal and Adulticidal Activities, Mechanism of Action, and Formulation Development” (Plants, 2025).

What was measured:
Aedes aegypti larvae = experiment: Larvicidal activity against Aedes aegypti third instar larvae
Method: Eggs of the Rockefeller strain of Aedes aegypti were hatched in filtered water, and larvae were reared under controlled conditions (28 ± 1 °C; 12 h photoperiod) until reaching the third instar (L3). […] Each test condition, including controls, was run in quadruplicate. […] Formulations (PEOANIB, PNFTANE, PNFTENE) were applied with the same protocol used for DMSO-dissolved samples, keeping the final solvent concentration at 1% (v/v) of the total water volume.
Negative controls contained either DMSO (200 µL) alone or blank nanomicelles (NBr) at a volume matching the highest concentration tested, whereas the positive control comprised temephos at 1 µg mL^−1. After 14 days of preparation of the formulation, an activity confirmation test was performed at fixed concentrations of PNFTANE (70 ppm) and PNFTENE (5 ppm) formulations. The assays were performed in quadruplicate.

Artemia salina nauplii = experiment: Toxicity test on Artemia salina nauplii (non-target); assay type: in vivo; settings: 24 h
Method: Toxicity assays with Artemia salina followed the procedure of Meyer and collaborators with adaptations like those of [86, 107]. For cyst hatching, 25 mg of eggs were placed in a cuboid-glass vessel containing 600 mL of artificial seawater (38 g L^−1 in distilled water) and incubated at 28–30 °C under continuous illumination from a 40 W incandescent lamp. After 24 h, the nauplii (first larval stage) were transferred to fresh saline and reared for an additional 24 h under the same conditions to obtain metanauplii (second larval stage), which were used in the bioassays. Ten metanauplii were exposed to 10 mL of saline containing the test samples dissolved in DMSO. […] After dosing, organisms were maintained at 28–30 °C under artificial light for 24 h. Mortality defined as immobility or sinking to the bottom was recorded, and LC50 values were calculated for each sample. All experiments were performed in triplicate with independent replicates under identical conditions to ensure reproducibility.

Row | SMILES | Slope ± SEM (LC99 fit) (Aedes aegypti larvae; 24 h exposure) | Slope ± SEM (LC99 fit) (Aedes aegypti larvae; 48 h exposure) | Slope ± SEM (Artemia salina nauplii)
1 | O=[N+]([O-])CCc1ccccc1 [NFTANE, 1-Nitro-2-phenylethane] | 22.2 ± 3.1 | 36.9 ± 8.0 | 5.8 ± 0.9
2 | O=[N+]([O-])C=Cc1ccccc1 [NFTENE, 1-Nitro-2-phenylethene] | 2.4 ± 0.1 | 3.7 ± 0.1 | 4.5 ± 0.6
